Some of the results follow. The main result of the screen is listed elsewhere. These columns were measured beside it and carry no call. The list favours compounds with an active or inconclusive main result. Potencies come from curve fits of mixed quality, noted in brackets.
Assay: qHTS Assay for Modulators of Lamin A Splicing
Settings: HeLa LMNA splicing GFP/RFP minigene ratio, 48 h
In short: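 S3 HeLa stable clones carrying a lamin A-EGFP splicing minigene plus DsRed2 were seeded at 600 cells/well in Opti-MEM with 2% FBS, pin-dosed and incubated 48 h at 37°C. Acumen cytometry (488 nm) gave the GFP/RFP total-intensity ratio.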

[1] = measured here: GFP splicing reporter channel
[2] = measured here: RFP viability control channel

SMILES | AC50 [1] | AC50 [2]
CC(=O)Nc1cccc(Oc2ncnc3scc(-c4ccc(C(C)C)cc4)c23)c1 | 14.1 µM [rising, single point] | 15.8 µM [rising, partial curve]
COc1ccc(/C=C/C(=O)c2ccc(Cl)cc2)c(OC)c1 | 35.5 µM [falling, single point] | 35.5 µM [falling, single point]
COc1ccc2[nH]cc(CCNc3ncncc3-c3cccc(NS(C)(=O)=O)c3)c2c1 | 7.94 µM [falling, partial curve] | –
C=CCN=C(CC)C1=C(O)CCCC1=O | – | 35.5 µM [rising, single point]
Cc1ccc2nsnc2c1NC(=O)COc1ccccc1 | – | 2 µM [falling, partial curve, poor fit]
Cc1ccc(C(=O)NNC(=O)c2ccc(SCC3CCCO3)c([N+](=O)[O-])c2)cc1 (stereo not given) | 11.2 µM [rising, partial curve] | 11.2 µM [rising, partial curve]
CC(C)NC(=O)NC(=O)CSc1nnc(COc2ccccc2F)n1C(C)C1CC2CCC1C2 (stereo not given) | 25.1 µM [falling, single point] | 22.4 µM [falling, partial curve]
C/C(CC(=O)Nc1cccnc1)=N\NC(=O)c1ccc([N+](=O)[O-])c(Cl)c1 | – | 35.5 µM [falling, partial curve, poor fit]
COc1ccc(NC(=O)CN2C(=O)CCc3cc(S(=O)(=O)N4CCOCC4)ccc32)cc1Cl | 0.0224 µM [rising, full curve, poor fit] | 0.0251 µM [rising, full curve, poor fit]
COc1cccc(Nc2nnc(SCn3nnc4ccccc4c3=O)s2)c1 | 31.6 µM [rising, single point] | –
Cc1ccc(C(NC(=O)N2CC(C)OC(C)C2)C(Cl)Cl)cc1F (stereo not given) | – | 35.5 µM [rising, single point]
NC(=O)COC(=O)/C=C/c1ccc2ccccc2n1 | – | 25.1 µM [rising, single point]
NCCCCN | 5.62 µM [falling, partial curve, poor fit] | –
Cc1nc(N2CCN(Cc3ccccc3)CC2)c(C#N)c2c1COC(C)(C)C2 | – | 20 µM [rising, single point]
Cn1cc([N+](=O)[O-])c(C(=O)Nc2cc(Oc3cccnc3)cc([N+](=O)[O-])c2)n1 | 3.98 µM [falling, single point] | 5.62 µM [falling, single point]
CCOc1ccc(S(=O)(=O)N2CCN(Cc3ccccc3)CC2)c2cccnc12 | 22.4 µM [rising, partial curve] | 20 µM [rising, partial curve]
COc1ccc2cc(C(=O)C3CCCN(Cc4cnc(N5CCOCC5)s4)C3)ccc2c1 (stereo not given) | 10 µM [falling, partial curve, poor fit] | 10 µM [falling, partial curve, poor fit]

SMILES | AC50 [1] | AC50 [2]
CC(CCc1ccccc1)NC(=O)/C=C/c1ccc(Cl)cc1 (stereo not given) | 14.1 µM [rising, single point] | 22.4 µM [rising, single point]
COc1cccc(Cn2c(CNS(=O)(=O)c3ccc4c(c3)CCCC4)nc3cccnc32)c1 | 0.02 µM [falling, full curve, poor fit] | –
Cc1ccc(S(=O)(=O)Nc2cc(C(F)(F)F)ccc2N2CCOCC2)cc1C | 15.8 µM [rising, single point] | 20 µM [rising, single point]
CN(Cc1ccc(C(C)(C)C)cc1)Cc1cccc2ccccc12 | 35.5 µM [falling, single point] | 20 µM [falling, single point]
COc1ccc(/C=C2\SC(=O)N(CCNC(=O)Cc3coc4cc(OC)ccc34)C2=O)cc1 | 12.6 µM [rising, partial curve] | 20 µM [rising, partial curve]
COc1ccc(O)c(-c2c(-c3ccc(Cl)cc3)n[nH]c2C)c1 | 35.5 µM [rising, single point] | 35.5 µM [rising, single point]
C[C@]12CC[C@H]3c4ccc(O)cc4CC[C@@H]3[C@H]1CC[C@@H]2OC(=O)CCC1CCCC1 | 5.62 µM [rising, full curve] | 3.55 µM [rising, full curve, poor fit]
COc1cccc(CN2CCNC(=O)C2CC(=O)NCCn2ccc3ccccc32)c1OC (stereo not given) | – | 1.58 µM [rising, partial curve, poor fit]
Cc1ccccc1Cn1ccc(NC(=O)c2onc(C)c2Cl)n1 | – | 35.5 µM [rising, single point]
Fc1ccccc1/C=C1\CCCC2=C1Nc1ncnn1C2c1ccccc1F (stereo not given) | 20 µM [falling, single point] | 35.5 µM [falling, single point]
O=C(CSc1nc(Cc2ccccc2)nc2ccccc12)Nc1nc2c(s1)CCCC2 | – | 15.8 µM [rising, partial curve]
Cc1cc(C)c(C(=O)CSc2n[nH]c(=O)n2C2CC2)cc1C | – | 31.6 µM [rising, single point]
O=C1CCCC2=C1C(c1ccncc1)n1c(nc3ccccc31)N2 (stereo not given) | 0.0282 µM [falling, full curve, poor fit] | 0.282 µM [falling, partial curve]
COc1ccccc1N1CCN(/N=C/C=C\c2ccccc2[N+](=O)[O-])CC1 | – | 0.282 µM [rising, full curve, poor fit]
Cc1ccc(NC(=O)c2ccccc2NS(=O)(=O)c2ccc(F)cc2)cc1S(=O)(=O)N1CCCCC1 | 0.708 µM [rising, full curve] | 2.51 µM [rising, full curve]
Cc1ccc(-c2n[nH]c(=S)n2/N=C/c2c(C)[nH]n(-c3ccccc3)c2=O)cc1 | 6.31 µM [falling, single point] | –

Some values from above:
`CCOc1ccc(S(=O)(=O)N2CCN(Cc3ccccc3)CC2)c2cccnc12` – AC50 [2]: 20 µM [rising, partial curve]
`CN(Cc1ccc(C(C)(C)C)cc1)Cc1cccc2ccccc12` – AC50 [1]: 35.5 µM [falling, single point]
